According to the supplement of paper PMC10849652:
The list shows a part of the results.

By UniProt entry, the sequences of proteins in these tests, tags left out. Where a name states a change or a piece, a line headed by the entry shows the natural chain unless it says otherwise.
UniProt O75528: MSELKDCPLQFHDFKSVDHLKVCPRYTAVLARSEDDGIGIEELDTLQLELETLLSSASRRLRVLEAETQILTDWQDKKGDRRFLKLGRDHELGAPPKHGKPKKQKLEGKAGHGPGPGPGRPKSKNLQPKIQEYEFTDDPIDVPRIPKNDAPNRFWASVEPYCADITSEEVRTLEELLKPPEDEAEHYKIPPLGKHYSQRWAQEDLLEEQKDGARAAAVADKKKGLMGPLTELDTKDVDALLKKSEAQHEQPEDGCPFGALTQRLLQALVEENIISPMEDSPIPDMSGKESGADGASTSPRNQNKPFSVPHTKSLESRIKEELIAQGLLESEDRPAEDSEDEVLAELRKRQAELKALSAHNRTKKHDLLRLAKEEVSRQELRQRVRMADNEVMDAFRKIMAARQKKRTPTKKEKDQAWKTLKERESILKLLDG
UniProt P37802: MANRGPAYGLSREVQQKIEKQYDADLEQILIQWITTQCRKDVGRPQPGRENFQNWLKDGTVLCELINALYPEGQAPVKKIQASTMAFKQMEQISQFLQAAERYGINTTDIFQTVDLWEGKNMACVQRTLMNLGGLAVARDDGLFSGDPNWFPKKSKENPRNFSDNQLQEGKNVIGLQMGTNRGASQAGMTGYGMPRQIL
UniProt P26639: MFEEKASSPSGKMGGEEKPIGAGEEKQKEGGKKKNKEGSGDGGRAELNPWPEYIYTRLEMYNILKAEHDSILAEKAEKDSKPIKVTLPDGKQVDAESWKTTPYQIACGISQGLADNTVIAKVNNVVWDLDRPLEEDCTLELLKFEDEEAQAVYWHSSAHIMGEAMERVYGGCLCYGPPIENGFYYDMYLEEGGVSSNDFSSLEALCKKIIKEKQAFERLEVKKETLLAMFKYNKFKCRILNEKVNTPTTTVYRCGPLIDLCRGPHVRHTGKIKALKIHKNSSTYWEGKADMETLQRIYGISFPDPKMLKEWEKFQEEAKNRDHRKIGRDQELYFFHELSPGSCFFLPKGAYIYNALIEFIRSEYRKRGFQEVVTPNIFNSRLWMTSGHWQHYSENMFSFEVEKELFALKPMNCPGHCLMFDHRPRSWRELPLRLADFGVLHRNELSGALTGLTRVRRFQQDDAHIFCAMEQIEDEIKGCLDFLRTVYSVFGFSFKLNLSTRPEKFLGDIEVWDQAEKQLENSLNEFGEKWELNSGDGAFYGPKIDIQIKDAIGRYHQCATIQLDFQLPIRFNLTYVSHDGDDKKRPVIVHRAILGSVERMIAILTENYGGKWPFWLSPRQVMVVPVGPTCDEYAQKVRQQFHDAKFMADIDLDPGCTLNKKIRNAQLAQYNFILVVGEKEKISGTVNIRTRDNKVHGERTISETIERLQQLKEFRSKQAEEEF
UniProt Q17R31: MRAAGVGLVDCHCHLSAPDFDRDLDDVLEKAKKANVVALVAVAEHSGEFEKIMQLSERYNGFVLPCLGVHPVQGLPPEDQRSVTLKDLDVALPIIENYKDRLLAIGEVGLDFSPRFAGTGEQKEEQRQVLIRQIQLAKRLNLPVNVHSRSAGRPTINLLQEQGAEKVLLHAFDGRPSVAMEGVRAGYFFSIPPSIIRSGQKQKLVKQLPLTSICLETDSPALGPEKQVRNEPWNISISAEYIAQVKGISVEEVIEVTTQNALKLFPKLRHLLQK
UniProt P46977: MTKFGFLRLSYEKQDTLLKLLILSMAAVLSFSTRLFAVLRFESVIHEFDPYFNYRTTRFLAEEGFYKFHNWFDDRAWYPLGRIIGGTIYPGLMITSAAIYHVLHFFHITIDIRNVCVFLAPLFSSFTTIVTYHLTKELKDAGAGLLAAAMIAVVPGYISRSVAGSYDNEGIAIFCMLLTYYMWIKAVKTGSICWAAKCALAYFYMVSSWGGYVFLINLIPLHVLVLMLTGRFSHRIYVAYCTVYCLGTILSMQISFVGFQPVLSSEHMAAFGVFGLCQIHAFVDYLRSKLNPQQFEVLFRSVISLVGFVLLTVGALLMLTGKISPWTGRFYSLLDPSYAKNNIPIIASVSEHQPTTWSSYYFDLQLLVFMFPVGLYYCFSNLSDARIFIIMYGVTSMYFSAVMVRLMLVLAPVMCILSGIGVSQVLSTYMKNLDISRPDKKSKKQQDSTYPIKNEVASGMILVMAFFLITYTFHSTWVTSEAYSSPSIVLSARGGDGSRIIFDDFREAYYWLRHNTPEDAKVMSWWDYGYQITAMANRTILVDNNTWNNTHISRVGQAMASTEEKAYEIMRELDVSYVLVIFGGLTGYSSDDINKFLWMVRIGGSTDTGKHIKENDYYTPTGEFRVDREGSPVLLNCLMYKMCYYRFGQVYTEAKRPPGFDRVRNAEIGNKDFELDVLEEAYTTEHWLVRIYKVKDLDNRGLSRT
UniProt Q8NBJ7: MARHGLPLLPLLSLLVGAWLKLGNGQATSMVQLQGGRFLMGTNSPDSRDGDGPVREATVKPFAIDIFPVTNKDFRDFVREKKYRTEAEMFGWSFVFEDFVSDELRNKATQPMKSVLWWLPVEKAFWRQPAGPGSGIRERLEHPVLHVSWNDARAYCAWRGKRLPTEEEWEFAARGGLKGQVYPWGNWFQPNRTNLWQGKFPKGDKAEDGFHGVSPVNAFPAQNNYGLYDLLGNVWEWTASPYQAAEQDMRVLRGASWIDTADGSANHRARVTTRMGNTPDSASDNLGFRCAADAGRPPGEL
UniProt O60506: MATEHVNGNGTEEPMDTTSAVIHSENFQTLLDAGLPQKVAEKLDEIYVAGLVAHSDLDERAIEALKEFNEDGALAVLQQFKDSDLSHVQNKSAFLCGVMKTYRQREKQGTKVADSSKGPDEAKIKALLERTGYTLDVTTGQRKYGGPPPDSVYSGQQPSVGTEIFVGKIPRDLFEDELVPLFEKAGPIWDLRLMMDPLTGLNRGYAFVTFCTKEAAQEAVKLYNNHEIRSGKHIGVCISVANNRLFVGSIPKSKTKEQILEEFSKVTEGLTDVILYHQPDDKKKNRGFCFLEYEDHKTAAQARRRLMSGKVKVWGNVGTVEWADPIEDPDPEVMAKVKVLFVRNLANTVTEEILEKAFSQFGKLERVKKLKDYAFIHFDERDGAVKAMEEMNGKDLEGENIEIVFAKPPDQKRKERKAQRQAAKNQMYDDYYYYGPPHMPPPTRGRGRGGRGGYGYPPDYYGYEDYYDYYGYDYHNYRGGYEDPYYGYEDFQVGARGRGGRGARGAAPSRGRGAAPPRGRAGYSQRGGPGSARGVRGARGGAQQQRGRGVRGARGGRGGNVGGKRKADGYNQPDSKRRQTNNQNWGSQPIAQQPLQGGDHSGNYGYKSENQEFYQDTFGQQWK
UniProt Q9NRL3: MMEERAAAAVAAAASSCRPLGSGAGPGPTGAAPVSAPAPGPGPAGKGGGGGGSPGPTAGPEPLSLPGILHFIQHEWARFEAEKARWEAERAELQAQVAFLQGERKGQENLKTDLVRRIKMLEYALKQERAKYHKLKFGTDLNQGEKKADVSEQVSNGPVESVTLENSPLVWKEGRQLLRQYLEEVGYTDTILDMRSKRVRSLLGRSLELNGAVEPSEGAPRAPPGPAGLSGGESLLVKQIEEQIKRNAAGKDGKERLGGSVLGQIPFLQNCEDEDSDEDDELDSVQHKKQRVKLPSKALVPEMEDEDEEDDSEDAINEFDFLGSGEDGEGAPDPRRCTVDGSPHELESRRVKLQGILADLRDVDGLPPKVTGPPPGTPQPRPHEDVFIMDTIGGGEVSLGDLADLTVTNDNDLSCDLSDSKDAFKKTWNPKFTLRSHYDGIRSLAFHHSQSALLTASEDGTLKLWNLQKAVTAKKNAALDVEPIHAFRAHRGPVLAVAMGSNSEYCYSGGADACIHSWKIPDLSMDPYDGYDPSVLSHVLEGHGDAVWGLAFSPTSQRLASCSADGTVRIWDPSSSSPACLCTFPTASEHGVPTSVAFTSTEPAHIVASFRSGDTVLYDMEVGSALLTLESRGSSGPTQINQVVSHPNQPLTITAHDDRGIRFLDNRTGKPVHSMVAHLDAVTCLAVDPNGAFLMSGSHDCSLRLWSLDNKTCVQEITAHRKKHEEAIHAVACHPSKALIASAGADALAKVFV
UniProt Q5VSL9: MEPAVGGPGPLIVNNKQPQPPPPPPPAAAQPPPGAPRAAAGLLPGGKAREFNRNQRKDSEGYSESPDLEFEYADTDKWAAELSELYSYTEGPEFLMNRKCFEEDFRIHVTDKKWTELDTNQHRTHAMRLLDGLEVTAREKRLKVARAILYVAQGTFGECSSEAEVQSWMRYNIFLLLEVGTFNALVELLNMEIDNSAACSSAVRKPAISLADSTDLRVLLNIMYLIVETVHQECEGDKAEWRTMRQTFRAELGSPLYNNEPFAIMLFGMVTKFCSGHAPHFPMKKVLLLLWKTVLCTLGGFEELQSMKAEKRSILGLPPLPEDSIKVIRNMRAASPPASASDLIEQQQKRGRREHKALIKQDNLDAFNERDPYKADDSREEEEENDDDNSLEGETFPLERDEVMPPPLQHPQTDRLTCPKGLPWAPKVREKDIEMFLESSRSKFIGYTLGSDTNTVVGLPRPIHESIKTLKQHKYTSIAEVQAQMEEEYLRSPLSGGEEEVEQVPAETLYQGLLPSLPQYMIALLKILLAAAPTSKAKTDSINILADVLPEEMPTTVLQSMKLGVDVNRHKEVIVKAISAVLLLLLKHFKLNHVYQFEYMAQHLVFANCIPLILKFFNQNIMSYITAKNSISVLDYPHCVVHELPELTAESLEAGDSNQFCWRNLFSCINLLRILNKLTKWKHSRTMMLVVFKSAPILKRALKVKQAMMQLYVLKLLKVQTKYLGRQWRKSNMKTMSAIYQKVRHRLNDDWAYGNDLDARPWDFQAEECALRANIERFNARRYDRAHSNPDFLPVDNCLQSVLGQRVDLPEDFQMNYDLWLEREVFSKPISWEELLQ
UniProt Q9UMZ2: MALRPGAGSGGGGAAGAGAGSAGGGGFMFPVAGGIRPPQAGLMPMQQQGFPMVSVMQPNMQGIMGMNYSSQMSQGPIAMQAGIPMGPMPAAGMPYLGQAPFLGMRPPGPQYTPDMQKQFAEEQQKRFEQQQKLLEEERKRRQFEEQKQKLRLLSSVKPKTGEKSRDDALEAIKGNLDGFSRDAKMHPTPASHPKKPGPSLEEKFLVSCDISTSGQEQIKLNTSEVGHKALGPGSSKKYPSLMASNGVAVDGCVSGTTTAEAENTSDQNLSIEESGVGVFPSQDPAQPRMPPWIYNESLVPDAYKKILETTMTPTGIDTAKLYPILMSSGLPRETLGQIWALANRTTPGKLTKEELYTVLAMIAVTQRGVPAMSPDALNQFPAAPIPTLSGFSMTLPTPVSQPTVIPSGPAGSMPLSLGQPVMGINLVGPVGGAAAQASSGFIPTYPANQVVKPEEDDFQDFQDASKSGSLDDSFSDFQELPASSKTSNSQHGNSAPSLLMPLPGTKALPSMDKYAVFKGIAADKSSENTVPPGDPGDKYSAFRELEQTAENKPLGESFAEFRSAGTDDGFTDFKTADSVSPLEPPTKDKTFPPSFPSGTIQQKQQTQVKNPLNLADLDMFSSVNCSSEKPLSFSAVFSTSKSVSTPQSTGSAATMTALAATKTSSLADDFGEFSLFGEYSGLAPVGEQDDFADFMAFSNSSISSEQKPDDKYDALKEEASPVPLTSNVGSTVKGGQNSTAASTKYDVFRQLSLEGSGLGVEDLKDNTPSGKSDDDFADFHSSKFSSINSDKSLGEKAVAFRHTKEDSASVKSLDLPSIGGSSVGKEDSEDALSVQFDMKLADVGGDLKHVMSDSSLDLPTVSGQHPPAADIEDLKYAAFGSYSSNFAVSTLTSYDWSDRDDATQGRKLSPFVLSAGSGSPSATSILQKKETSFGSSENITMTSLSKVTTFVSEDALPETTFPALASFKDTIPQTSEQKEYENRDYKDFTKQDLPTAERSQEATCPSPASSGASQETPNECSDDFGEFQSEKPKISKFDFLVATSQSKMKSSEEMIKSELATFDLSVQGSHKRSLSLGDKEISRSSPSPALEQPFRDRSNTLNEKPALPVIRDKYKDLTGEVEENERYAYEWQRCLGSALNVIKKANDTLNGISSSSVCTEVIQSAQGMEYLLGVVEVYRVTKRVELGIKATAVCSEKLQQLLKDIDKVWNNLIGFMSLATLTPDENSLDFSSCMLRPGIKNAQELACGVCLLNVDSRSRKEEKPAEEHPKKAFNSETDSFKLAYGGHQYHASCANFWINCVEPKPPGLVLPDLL
UniProt Q6ICL3: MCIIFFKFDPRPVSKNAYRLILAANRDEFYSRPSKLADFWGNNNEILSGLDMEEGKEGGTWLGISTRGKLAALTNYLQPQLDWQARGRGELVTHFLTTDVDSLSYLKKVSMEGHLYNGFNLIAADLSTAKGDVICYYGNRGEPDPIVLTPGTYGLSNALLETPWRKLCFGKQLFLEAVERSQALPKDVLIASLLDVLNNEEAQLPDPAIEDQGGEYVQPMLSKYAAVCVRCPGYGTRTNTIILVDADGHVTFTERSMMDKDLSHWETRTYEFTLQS

Legend:
Test in all cases: log2 fold change, soluble protein after heating vs DMSO (PISA); higher = thermal stabilisation; K562 cells, 10 uM, 30 min; active = over 0.2 and 3.5 SD of the protein, either way, in both replicates (recomputed)
[1] = compound: COC1=CC=C(C=C1)CN2C=CC3=C2C=C(C=C3)C(=O)NO
Procedure, shortened: (§1)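 K562 cells at 2×10^6 cells/mL were treated for 30 min with 10 μM compound, and aliquots were heated for 3 min over 48°C-58°C before pooling. Extraction used PBS with 0.5% NP-40 at 4°C, and soluble protein was the supernatant after 21,000xg for 90 min, measured by TMTpro 16plex LC-MS/MS with channel sums equalised. Thermal stability values, relative to control samples and from duplicates, are log2 fold changes.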

filanesib = compound: CON(C)C(=O)N1N=C(c2cc(F)ccc2F)S[C@@]1(CCCN)c1ccccc1 [filanesib]
Procedure, shortened: as §1

zotarolimus = compound: CO[C@H]1C[C@@H]2CC[C@@H](C)[C@@](O)(O2)C(=O)C(=O)N2CCCC[C@H]2C(=O)O[C@H]([C@H](C)C[C@@H]2CC[C@H](n3cnnn3)[C@H](OC)C2)CC(=O)[C@H](C)/C=C(\C)[C@@H](O)[C@@H](OC)C(=O)[C@H](C)C[C@H](C)/C=C/C=C/C=C/1C [zotarolimus]
Procedure, shortened: as §1

idasanutlin = compound: COc1cc(C(=O)O)ccc1NC(=O)[C@@H]1N[C@@H](CC(C)(C)C)[C@](C#N)(c2ccc(Cl)cc2F)[C@H]1c1cccc(Cl)c1F [idasanutlin]
Procedure, shortened: as §1

alisertib = compound: COc1cc(Nc2ncc3c(n2)-c2ccc(Cl)cc2C(c2c(F)cccc2OC)=NC3)ccc1C(=O)O [alisertib]
Procedure, shortened: as §1

[2] = compound: COc1cc2nc(-c3cc(F)ccc3O)nc(N[C@@H]3CNC[C@H]3C(C)(C)O)c2cc1OC
Procedure, shortened: as §1

gefitinib = compound: COc1cc2ncnc(Nc3ccc(F)c(Cl)c3)c2cc1OCCCN1CCOCC1 [gefitinib]
Procedure, shortened: as §1

[3] = compound: COc1cccc2cc(-c3nc([C@H]4CC[C@H](C(=O)O)CC4)n4ncnc(N)c34)[nH]c12
Procedure, shortened: as §1

lapatinib = compound: CS(=O)(=O)CCNCc1ccc(-c2ccc3ncnc(Nc4ccc(OCc5cccc(F)c5)c(Cl)c4)c3c2)o1 [lapatinib]
Procedure, shortened: as §1

pictilisib = compound: CS(=O)(=O)N1CCN(Cc2cc3nc(-c4cccc5[nH]ncc45)nc(N4CCOCC4)c3s2)CC1 [pictilisib]
Procedure, shortened: as §1

[4] = compound: CS(=O)(=O)c1ccc(-c2cnc(N)c(C(=O)Nc3ccccc3)n2)cc1
Procedure, shortened: as §1

crizotinib = compound: C[C@@H](Oc1cc(-c2cnn(C3CCNCC3)c2)cnc1N)c1c(Cl)ccc(F)c1Cl [crizotinib]
Procedure, shortened: as §1

[5] = compound: C[C@@H]1COCCN1C2=NC(=NC(=C2)C3(CC3)S(=O)(=O)C)C4=C5C=CNC5=CC=C4
Procedure, shortened: as §1

[6] = compound: C[C@H](C1=CC=C(C=C1)C(=O)NC2=C3C=CNC3=NC=C2)N
Procedure, shortened: as §1

duvelisib = compound: C[C@H](Nc1ncnc2nc[nH]c12)c1cc2cccc(Cl)c2c(=O)n1-c1ccccc1 [duvelisib]
Procedure, shortened: as §1

gandotinib = compound: Cc1cc(Nc2cc(CN3CCOCC3)c3nc(C)c(Cc4ccc(Cl)cc4F)n3n2)n[nH]1 [gandotinib]
Procedure, shortened: as §1

tozasertib = compound: Cc1cc(Nc2cc(N3CCN(C)CC3)nc(Sc3ccc(NC(=O)C4CC4)cc3)n2)n[nH]1 [tozasertib]
Procedure, shortened: as §1

[7] = compound: Cc1cc(SCc2sc(-c3ccc(C(F)(F)F)cc3)nc2C)ccc1OCC(=O)O
Procedure, shortened: as §1

doramapimod = compound: Cc1ccc(-n2nc(C(C)(C)C)cc2NC(=O)Nc2ccc(OCCN3CCOCC3)c3ccccc23)cc1 [doramapimod]
Procedure, shortened: as §1

ispinesib = compound: Cc1ccc(C(=O)N(CCCN)[C@@H](c2nc3cc(Cl)ccc3c(=O)n2Cc2ccccc2)C(C)C)cc1 [ispinesib]
Procedure, shortened: as §1

Measured: log2 fold change

TADA3 (UniProt O75528)
inactive: [1] 0.03 | filanesib -0.048 | zotarolimus 0.016 | idasanutlin -0.041 | alisertib -0.055 | [2] -0.022 | gefitinib 0.01 | [3] -0.015 | lapatinib -0.044 | pictilisib -0.008 | [4] -0.019 | crizotinib -0.031 | [5] 0.055 | [6] -0.082 | duvelisib 0.045 | gandotinib 0.003 | tozasertib -0.006 | [7] -0.003 | doramapimod 0.014 | ispinesib 0.054

SUGT1 (UniProt Q9Y2Z0)
inactive: [1] 0.018 | filanesib -0.062 | zotarolimus 0.026 | idasanutlin 0.004 | alisertib -0.069 | [2] 0 | gefitinib -0.001 | [3] -0.009 | lapatinib -0.002 | pictilisib 0.023 | [4] 0.012 | crizotinib 0.014 | [5] 0.009 | [6] -0.117 | duvelisib 0.004 | gandotinib -0.049 | tozasertib 0.055 | [7] 0 | doramapimod -0.033 | ispinesib 0.061

TAGLN2 isoform 2 (UniProt P37802)
inactive: [1] 0.04 | filanesib -0.028 | zotarolimus 0.019 | idasanutlin 0.012 | alisertib -0.098 | [2] -0.004 | gefitinib 0.009 | [3] -0.024 | lapatinib 0.028 | pictilisib 0.003 | [4] 0.015 | crizotinib 0.013 | [5] 0.053 | [6] -0.1 | duvelisib 0.011 | gandotinib -0.029 | tozasertib 0.022 | [7] 0.021 | doramapimod -0.037 | ispinesib 0.057

TARS1 (UniProt P26639)
inactive: [1] 0.011 | filanesib -0.142 | zotarolimus 0.034 | idasanutlin -0.071 | alisertib -0.069 | [2] -0.032 | gefitinib -0.003 | [3] 0 | lapatinib 0.012 | pictilisib -0.028 | [4] 0.039 | crizotinib -0.147 | [5] 0.087 | [6] -0.032 | duvelisib -0.015 | gandotinib -0.064 | tozasertib -0.026 | [7] 0.054 | doramapimod -0.007 | ispinesib -0.12

SYVN1 (UniProt Q86TM6)
inactive: [1] -0.049 | filanesib -0.064 | zotarolimus -0.021 | idasanutlin -0.061 | alisertib -0.028 | [2] -0.081 | gefitinib -0.005 | [3] 0.033 | lapatinib 0.006 | pictilisib 0.09 | [4] -0.029 | crizotinib 0.053 | [5] 0.125 | [6] -0.083 | duvelisib 0.052 | gandotinib 0.01 | tozasertib -0.011 | [7] -0.023 | doramapimod 0.032 | ispinesib -0.037

STT3B (UniProt Q8TCJ2)
inactive: [1] -0.063 | filanesib 0.028 | zotarolimus -0.003 | idasanutlin 0.027 | alisertib -0.019 | [2] -0.022 | gefitinib -0.005 | [3] -0.01 | lapatinib 0.063 | pictilisib -0.058 | [4] 0.006 | crizotinib 0.074 | [5] -0.047 | [6] 0.025 | duvelisib -0.122 | gandotinib 0.069 | tozasertib 0.009 | [7] -0.054 | doramapimod -0.017 | ispinesib -0.026

TATDN3 isoform 3 (UniProt Q17R31)
inactive: [1] -0.093 | filanesib -0.004 | zotarolimus -0.145 | idasanutlin -0.018 | alisertib -0.051 | [2] -0.002 | gefitinib -0.024 | [3] 0.021 | lapatinib -0.081 | pictilisib 0.104 | [4] -0.001 | crizotinib 0.014 | [5] 0.05 | [6] 0.131 | duvelisib -0.022 | gandotinib -0.088 | tozasertib -0.06 | [7] -0.02 | doramapimod 0.008 | ispinesib 0.011

TAF7 (UniProt Q15545)
inactive: [1] -0.091 | filanesib 0.063 | zotarolimus 0.03 | idasanutlin -0.004 | alisertib -0.066 | [2] -0.014 | gefitinib 0.031 | [3] -0.031 | lapatinib 0.012 | pictilisib -0.05 | [4] -0.07 | crizotinib 0.009 | [5] -0.045 | [6] -0.049 | duvelisib -0.001 | gandotinib -0.022 | tozasertib -0.031 | [7] -0.013 | doramapimod 0.009 | ispinesib 0

STT3A (UniProt P46977)
inactive: [1] -0.096 | filanesib -0.032 | zotarolimus -0.005 | idasanutlin -0.027 | alisertib -0.036 | [2] -0.044 | gefitinib -0.003 | [3] -0.006 | lapatinib 0.03 | pictilisib 0.011 | [4] -0.015 | crizotinib 0.026 | [5] -0.041 | [6] 0.014 | duvelisib -0.026 | gandotinib -0.018 | tozasertib 0.009 | [7] -0.001 | doramapimod -0.008 | ispinesib -0.046

SUMF2 (UniProt Q8NBJ7)
inactive: [1] -0.035 | filanesib -0.06 | zotarolimus 0.01 | idasanutlin 0 | alisertib -0.031 | [2] -0.011 | gefitinib 0.024 | [3] -0.006 | lapatinib 0.012 | pictilisib -0.112 | [4] 0.043 | crizotinib -0.056 | [5] -0.002 | [6] 0.037 | duvelisib -0.031 | gandotinib 0.016 | tozasertib 0.032 | [7] 0.026 | doramapimod 0.019 | ispinesib -0.066

SYNCRIP (UniProt O60506)
inactive: [1] -0.044 | filanesib 0.113 | zotarolimus -0.037 | idasanutlin 0.084 | alisertib -0.069 | [2] -0.036 | gefitinib -0.052 | [3] -0.082 | lapatinib 0.053 | pictilisib -0.053 | [4] -0.095 | crizotinib 0.025 | [5] -0.214 | [6] 0.18 | duvelisib -0.119 | gandotinib 0.117 | tozasertib 0.028 | [7] 0.017 | doramapimod 0.035 | ispinesib -0.155

Fetched one by one from the list above (two):
STT3A (UniProt P46977)
inactive: [1] -0.096 | filanesib -0.032 | zotarolimus -0.005 | idasanutlin -0.027 | alisertib -0.036 | [2] -0.044 | gefitinib -0.003 | [3] -0.006 | lapatinib 0.03 | pictilisib 0.011 | [4] -0.015 | crizotinib 0.026 | [5] -0.041 | [6] 0.014 | duvelisib -0.026 | gandotinib -0.018 | tozasertib 0.009 | [7] -0.001 | doramapimod -0.008 | ispinesib -0.046

SYNCRIP (UniProt O60506)
inactive: [1] -0.044 | filanesib 0.113 | zotarolimus -0.037 | idasanutlin 0.084 | alisertib -0.069 | [2] -0.036 | gefitinib -0.052 | [3] -0.082 | lapatinib 0.053 | pictilisib -0.053 | [4] -0.095 | crizotinib 0.025 | [5] -0.214 | [6] 0.18 | duvelisib -0.119 | gandotinib 0.117 | tozasertib 0.028 | [7] 0.017 | doramapimod 0.035 | ispinesib -0.155

Continued:

STRN4 isoform 3 (UniProt Q9NRL3)
inactive: [1] -0.074 | filanesib -0.064 | zotarolimus -0.032 | idasanutlin 0.021 | alisertib -0.082 | [2] 0.064 | gefitinib 0.035 | [3] -0.068 | lapatinib 0.102 | pictilisib 0.113 | [4] 0.025 | crizotinib 0.116 | [5] -0.059 | [6] -0.034 | duvelisib 0.036 | gandotinib 0.026 | tozasertib 0.05 | [7] -0.006 | doramapimod -0.013 | ispinesib 0.028

STRIP1 (UniProt Q5VSL9)
inactive: [1] -0.088 | filanesib -0.034 | zotarolimus 0.029 | idasanutlin -0.052 | alisertib -0.077 | [2] -0.055 | gefitinib -0.003 | [3] -0.057 | lapatinib 0.09 | pictilisib 0.021 | [4] -0.076 | crizotinib 0.04 | [5] 0.055 | [6] 0.096 | duvelisib 0.023 | gandotinib -0.001 | tozasertib -0.01 | [7] 0.047 | doramapimod 0.106 | ispinesib 0.048

TARSL2 (UniProt A2RTX5)
inactive: [1] -0.029 | filanesib -0.096 | zotarolimus 0.068 | idasanutlin 0.008 | alisertib -0.031 | [2] -0.007 | gefitinib 0.009 | [3] 0.023 | lapatinib -0.017 | pictilisib 0.021 | [4] 0.015 | crizotinib -0.16 | [5] 0.081 | [6] -0.012 | duvelisib 0.063 | gandotinib -0.08 | tozasertib -0.072 | [7] 0.006 | doramapimod 0.072 | ispinesib -0.134

SYNRG (UniProt Q9UMZ2)
inactive: [1] -0.006 | filanesib 0.031 | zotarolimus -0.024 | idasanutlin -0.062 | alisertib -0.085 | [2] 0.016 | gefitinib -0.062 | [3] 0.03 | lapatinib 0.011 | pictilisib 0.046 | [4] -0.013 | crizotinib -0.017 | [5] 0 | [6] 0.019 | duvelisib 0.084 | gandotinib -0.131 | tozasertib -0.025 | [7] 0.039 | doramapimod 0.034 | ispinesib 0.072

TANGO2 isoform 4 (UniProt Q6ICL3)
inactive: [1] 0.022 | filanesib 0.014 | zotarolimus 0.027 | idasanutlin 0.001 | alisertib -0.097 | [2] 0.034 | gefitinib -0.026 | [3] 0.035 | lapatinib 0.002 | pictilisib 0.057 | [4] 0.052 | crizotinib 0.02 | [5] 0.107 | [6] -0.059 | duvelisib 0.029 | gandotinib -0.015 | tozasertib 0.012 | [7] 0.052 | doramapimod 0.017 | ispinesib 0.055
